Laboratory results as given in patent US5972379A, “Liposome composition and method for administering a quinolone” (Sequus Pharmaceuticals, Inc., priority 1998, dated 1999).

What was measured:
[1] = Remote drug loading into PEG-coated liposomes; format: physicochemical; settings: lipid/drug ratio 8, as stated in leakage test
Experimental: Liposome having a surface-coating of polyethylene glycol were prepared by dissolving 661.1 mg hydrogenated soy phosphatidylcholine (HSPC), 220.5 mg cholesterol and 220.5 mg of polyethylene glycol derivatized to disteroyl phosphatidylethanolamine (PEG-DSPE) in 10 ml chloroform in a 250 mL round bottom flask. The chloroform was removed using a flash evaporator under reduced pressure until dryness. To the thin lipid film on the surface of the flask was added 15 ml of a solution of 250 mM ammonium sulfate, pH 5.5 and the lipids were dispersed in the solution by vigorous shaking for approximately 30 minutes at 60° C. The multilamellar vesicles obtained were extruded 6 times through a 0.4 μm pore-size Nucleopore polycarbonate filter, 6 times through a 0.1 μm polycarbonate filter and 3 times through a 0.05 μm polycarbonate filter using a stainless steel extrusion cell under a pressure of 200-400 psig. The extrusion process was carried out at 60° C. […] The liposomes were then dialyzed overnight against 4 liters 10% sucrose to remove external ammonium sulfate at 4° C.
The mixtures were incubated at 60° C. for 30 minutes. After incubation, the mixtures were immediately cooled in an ice bath. Aliquot samples were taken and the percent of drug loading was determined by using a Sephadex G-50 column (1.0×19 cm). […]

[2] = 24 hours, 37° C., rat plasma, diluted 1/50

O=C(O)c1cn(C2CC2)c2cc(N3CCNCC3)c(F)cc2c1=O [ciprofloxacin, 1-cyclopropyl-6-fluoro-1,4-dihydro-4-oxo-7-(1-piperazinyl)-3-quinoline carboxylic acid]
ciprofloxacin concentration in liposome [1]: approximately 75 mg/ml
drug leaked from the liposomes in plasma [2]: 85%
